# Assay results published in the supplement of paper PMC3334620.
# In all, about 33,000 sequences were measured (“E-score (-0.5 to 0.5)”: median about -0.015, highest 2% from about 0.3 on). This is one part of the list.
# Biological target: T1, Abf1 (UniProt P14164)
# T1 sequence: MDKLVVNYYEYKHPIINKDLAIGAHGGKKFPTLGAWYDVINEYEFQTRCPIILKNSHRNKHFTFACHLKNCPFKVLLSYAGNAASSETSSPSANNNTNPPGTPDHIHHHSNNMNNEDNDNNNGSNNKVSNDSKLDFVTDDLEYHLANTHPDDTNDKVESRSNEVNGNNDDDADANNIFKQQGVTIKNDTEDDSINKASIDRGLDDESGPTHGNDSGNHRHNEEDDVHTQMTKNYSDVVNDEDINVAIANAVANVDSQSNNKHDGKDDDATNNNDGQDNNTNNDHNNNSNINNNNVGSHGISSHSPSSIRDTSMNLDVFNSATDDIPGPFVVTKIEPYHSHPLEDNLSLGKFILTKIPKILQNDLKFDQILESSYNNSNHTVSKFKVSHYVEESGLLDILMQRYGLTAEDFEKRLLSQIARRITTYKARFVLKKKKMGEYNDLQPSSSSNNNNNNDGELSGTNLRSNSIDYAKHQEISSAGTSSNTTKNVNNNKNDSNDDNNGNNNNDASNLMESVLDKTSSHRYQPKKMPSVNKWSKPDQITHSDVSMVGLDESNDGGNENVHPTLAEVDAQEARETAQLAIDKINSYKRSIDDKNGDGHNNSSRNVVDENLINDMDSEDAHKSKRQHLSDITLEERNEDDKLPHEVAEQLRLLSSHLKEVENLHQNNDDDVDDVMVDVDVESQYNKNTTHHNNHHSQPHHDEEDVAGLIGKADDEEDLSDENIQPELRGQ
# Test: PBM E-score (8-mer binding enrichment) (E-score (-0.5 to 0.5)); higher = stronger / more preferred TF binding
# Conditions: protein concentration: 200 nM; construct: GST-full length
# How it was run: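 PURExpress in vitro transcription/translation supplied GST-tagged yeast transcription factors, either full-length or DNA-binding domain. Applied at about 100-200 nM to universal all-10-mer Agilent arrays double-stranded by primer extension, the bound protein was detected with fluorescent anti-GST. E-scores, modified Wilcoxon-Mann-Whitney statistics, were given by the Universal PBM Analysis Suite to ungapped eight-base words pooled with their reverse complements after masliner normalisation.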
row,Sequence,PBM E-score
1,CAGATTGG,-0.278
2,GTCACGGA,0.206
3,CAGTCCCC,-0.369
4,ATGGGGGC,-0.378
5,GGTCTGTA,-0.269
6,AGAGAGCG,-0.103
7,CACCAAGC,-0.181
8,ATATGGGG,-0.234
9,AAGATACA,0.147
10,AAGAAGTA,0.138
11,CAACGGAA,0.13
12,GTACGGCA,0.222
13,GCGGACCC,-0.149
14,CACAAATG,-0.0408
15,ACTAGACG,0.168
16,CCAACCGG,-0.0618
17,AGTTCCTC,-0.207
18,TGGACCAA,-0.28
19,ATAGACAC,0.0964
20,AGATTGCT,-0.11
21,CATCACAC,0.141
22,CACCATCC,-0.189
23,GATTCGAA,0.121
24,GCCGATCA,-0.00195
25,ACTAATTA,0.289

row,Sequence,PBM E-score
1,AGATACAC,0.138
2,ACCGGGCT,-0.169
3,AGTGATGC,0.319
4,GTTGAATA,0.186
5,CATGCAGG,-0.219
6,CTTCGCCC,-0.161
7,GAACAATC,0.0605
8,AAATCAGC,0.0634
9,ATTCGGCG,0.0671
10,AGGCGTAT,0.0228
11,CGTACCTC,0.0233
12,ATATCCAC,0.141
13,AAATGAGC,-0.0797
14,CCCGGCGG,-0.29
15,CGTCGTCC,0.307
16,GCTAACAC,-0.0248
17,ACATGGGG,-0.293
18,GGCGAACA,-0.126
19,CAACGCAA,-0.0477
20,AATGGCTA,0.0665
21,AGCCTCCT,-0.222
22,ACCCTAGG,-0.07
23,CCCATAAG,-0.167
24,CACCGACG,0.0491
25,GTTAGCAA,0.104

row,Sequence,PBM E-score
1,AGGCGAGC,-0.197
2,GGGTATGA,-0.0169
3,CCAAAAGA,0.0195
4,CGAGCCTC,-0.215
5,CCGCAGGA,-0.211
6,ACGAAGGC,0.085
7,ACCGAAGC,-0.223
8,ATCGCGCG,0.276
9,CGCCGATA,0.108
10,ACGCCTCT,-0.332
11,GATCATCA,0.278
12,AGGCGACC,-0.0317
13,GCCAGCCC,-0.375
14,CCGTAAAC,0.0995
15,CCATGGAC,0.017
16,ATCGATCA,0.0584
17,TCACCTGA,-0.00949
18,ACAGAAGT,-0.106
19,GAACATTC,-0.121
20,AATTTGCG,-0.0805
21,GCTGTACA,-0.025
22,ATGTGGGA,-0.124
23,CGAGGGTC,-0.195
24,CTTGACAA,0.104
25,GAGGCGAA,0.134

# Seven records picked at random from those above:
row,Sequence,PBM E-score
2,GGGTATGA,-0.0169
21,GCTGTACA,-0.025
17,TCACCTGA,-0.00949
6,ACGAAGGC,0.085
22,ATGTGGGA,-0.124
7,ACCGAAGC,-0.223
23,CGAGGGTC,-0.195

# (list continues)

row,Sequence,PBM E-score
1,ACATTAGG,-0.0908
2,GGCCTGAC,-0.0336
3,ACTGGAAA,0.00544
4,GACAAGCA,0.0163
5,GAGCGAGA,0.153
6,ATTCTTTC,-0.0665
7,AAGCTCGT,0.191
8,CACTGGAA,-0.0381
9,CCTCTGCC,-0.263
10,ACCAATAG,-0.133
11,AATGCCCG,-0.151
12,AAGCACCA,0.0116
13,ATTTGCCG,-0.12
14,CTCTCCTA,-0.117
15,AACATACG,0.144
16,AGTGCTTG,-0.0775
17,CGAATGTC,0.0331
18,GAGGCTAC,-0.23
19,AATAGGCA,-0.0119
20,AACAGCGA,-0.147
21,ATGAACAA,0.0933
22,GAAGGACC,-0.148
23,GAATAGCC,-0.137
24,CGAGTTTC,-0.122
25,AGTGGTTG,-0.0565

row,Sequence,PBM E-score
1,ACGGCGTG,0.161
2,TAGCAACA,0.0959
3,CCGCTAGC,-0.189
4,ACCTTACC,-0.0706
5,AGCTGTAT,-0.356
6,GGACGCGA,-0.0137
7,ACGAAGGA,0.0584
8,ACTGTAGG,0.0945
9,TCTTAAAA,0.00926
10,CTTAGTAA,0.157
11,GTTATGGA,0.00526
12,CTTACGTC,-0.0145
13,TCATTAAA,0.272
14,AAAGGTCG,-0.0258
15,TCCATGCA,-0.0997
16,CACTCCGA,-0.0615
17,AGCACGCT,-0.202
18,ACTCTACA,-0.0573
19,ATCGTCAA,0.342
20,CACCTTAG,-0.124
21,AGCATTAG,0.0553
22,ATCGTTGA,0.208
23,AAACGGTA,0.141
24,ACCCACGT,-0.00749
25,CTCTCTGC,-0.188

row,Sequence,PBM E-score
1,GCTCTTTA,-0.103
2,ACATTTAT,0.0922
3,ATAAATGG,0.0835
4,CGGGATTA,0.0022
5,ATGACGAG,0.243
6,GCAACCCC,-0.144
7,ACTGAGAA,-0.055
8,ACGGACTC,-0.0811
9,CGTATCCA,-0.0211
10,GAATAGTA,0.145
11,GAAATGTC,0.0758
12,AAGATTGA,0.0973
13,GGATAAGA,-0.048
14,AACACGCC,-0.202
15,AGTAAATC,0.0893
16,CGGACAAG,0.1
17,CACTCCCG,-0.104
18,GAGCGACC,-0.0178
19,CAAACCCA,0.0842
20,CTAAGAAG,0.227
21,AATTATCC,0.0502
22,ACATGGTA,0.167
23,ATTCATGA,0.173
24,CCACCGAA,-0.00243
25,ATGAGACC,-0.144

row,Sequence,PBM E-score
1,ACGCCATC,-0.0905
2,CAAGGGCA,-0.398
3,ATCAAAGG,-0.0809
4,GCGGGCCA,-0.179
5,GTGTAATA,0.237
6,ATGGCCAA,-0.0504
7,CTCTTGTC,0.024
8,TACATTAA,0.227
9,AGATTTAG,0.0517
10,AGTGCGAC,-0.0741
11,CGAAAGAA,-0.0243
12,AGCGAGGG,-0.124
13,ACCCGAGG,-0.209
14,TGTGTTAA,0.134
15,TACTGGGA,0.0985
16,CTCGTTGC,0.164
17,ATGGTTTA,0.0544
18,CCATTATA,0.151
19,CGCGTTCA,-0.171
20,ATACATGC,-0.111
21,CATGCCGG,-0.00463
22,GCAGGAAC,-0.151
